Structures can show the parent of a compound that is named as a salt. The list shows a part of the results. The calls rarely recur for the same compound in another form.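 In K562 cells expressing nanoluciferase-fused kinases, luminescence was recorded at 4 h intervals between 2 and 18 h, normalized as percent of control with DMSO at 100% and a positive control at 0%. A significant (2 sigma) signal drop marks a time point as decreased. The authors' rule for a hit is not shown and takes in more than the number of time points.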
How the values were obtained:
Details in all cases: K562; 2-18 h
YES1 = YES1 (UniProt P07947); assay: number of time points (of 5) at which kinase-Nluc abundance scored as decreased, DMSO-normalised (count); higher = more persistent destabilization
ZAK = ZAK (UniProt Q9NYL2); assay: as above
ZAP70 = ZAP70 (UniProt P43403); assay: as above
CDK4 = CDK4 (UniProt P11802); assay: number of time points (of 4; 2 h point missing) at which kinase-Nluc abundance scored as decreased, DMSO-normalised (count); higher = more persistent destabilization
CDK7 = CDK7 (UniProt P50613); assay: as above
CDK9 = CDK9 (UniProt P50750); assay: as above

Sequences of proteins named here, by UniProt entry; tags and fusion partners are left off. A change or cut given only in a name is not applied to a line headed by its entry.
UniProt P07947, whole entry, looked up: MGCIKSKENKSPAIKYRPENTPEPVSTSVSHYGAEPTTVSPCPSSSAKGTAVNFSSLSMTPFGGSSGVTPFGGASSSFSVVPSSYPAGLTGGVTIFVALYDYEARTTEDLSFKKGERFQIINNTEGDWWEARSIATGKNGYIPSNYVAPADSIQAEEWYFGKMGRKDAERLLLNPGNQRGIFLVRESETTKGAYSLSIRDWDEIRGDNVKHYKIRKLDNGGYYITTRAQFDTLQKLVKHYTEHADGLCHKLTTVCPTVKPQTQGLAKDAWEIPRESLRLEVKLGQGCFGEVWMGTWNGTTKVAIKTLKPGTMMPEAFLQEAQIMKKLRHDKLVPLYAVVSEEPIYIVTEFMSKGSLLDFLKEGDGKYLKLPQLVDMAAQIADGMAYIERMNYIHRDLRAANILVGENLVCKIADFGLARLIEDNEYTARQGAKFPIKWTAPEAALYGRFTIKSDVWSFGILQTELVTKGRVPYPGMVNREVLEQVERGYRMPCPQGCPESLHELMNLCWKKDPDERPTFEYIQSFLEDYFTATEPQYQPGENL
UniProt P43403: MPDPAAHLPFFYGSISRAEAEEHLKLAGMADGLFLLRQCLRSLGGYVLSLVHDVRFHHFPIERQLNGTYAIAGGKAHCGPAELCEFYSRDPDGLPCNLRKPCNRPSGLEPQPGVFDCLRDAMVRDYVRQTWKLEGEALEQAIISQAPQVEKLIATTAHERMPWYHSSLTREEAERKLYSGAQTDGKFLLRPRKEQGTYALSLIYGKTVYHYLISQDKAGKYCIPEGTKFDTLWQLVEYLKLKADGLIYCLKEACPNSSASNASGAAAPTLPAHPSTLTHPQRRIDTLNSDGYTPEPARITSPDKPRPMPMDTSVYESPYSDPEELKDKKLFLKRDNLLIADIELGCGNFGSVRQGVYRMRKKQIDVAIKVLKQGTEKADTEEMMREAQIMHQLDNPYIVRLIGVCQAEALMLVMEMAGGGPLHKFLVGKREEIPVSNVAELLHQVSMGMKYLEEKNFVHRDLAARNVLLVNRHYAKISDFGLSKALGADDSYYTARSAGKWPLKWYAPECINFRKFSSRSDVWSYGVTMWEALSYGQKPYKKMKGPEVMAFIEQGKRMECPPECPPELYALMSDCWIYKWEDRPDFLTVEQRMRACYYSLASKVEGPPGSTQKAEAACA
UniProt P11802: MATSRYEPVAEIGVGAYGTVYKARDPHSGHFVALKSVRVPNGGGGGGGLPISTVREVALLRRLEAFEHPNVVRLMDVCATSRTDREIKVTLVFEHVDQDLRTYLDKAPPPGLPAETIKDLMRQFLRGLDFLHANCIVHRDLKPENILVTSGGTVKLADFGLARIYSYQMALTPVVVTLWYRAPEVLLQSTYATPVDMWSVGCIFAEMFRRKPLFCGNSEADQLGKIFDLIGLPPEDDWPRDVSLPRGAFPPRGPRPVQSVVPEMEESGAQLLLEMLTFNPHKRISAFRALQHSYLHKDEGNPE
UniProt P50613: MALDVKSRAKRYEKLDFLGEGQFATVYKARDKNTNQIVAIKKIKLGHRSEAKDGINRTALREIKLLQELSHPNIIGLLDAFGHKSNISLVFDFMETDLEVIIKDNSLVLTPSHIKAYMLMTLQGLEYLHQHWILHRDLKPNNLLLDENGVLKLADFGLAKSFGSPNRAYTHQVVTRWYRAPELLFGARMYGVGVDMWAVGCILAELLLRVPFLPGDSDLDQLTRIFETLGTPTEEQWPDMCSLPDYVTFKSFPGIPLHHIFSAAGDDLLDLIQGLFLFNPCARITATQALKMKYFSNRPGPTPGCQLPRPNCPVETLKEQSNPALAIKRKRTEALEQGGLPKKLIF
UniProt P50750, whole entry: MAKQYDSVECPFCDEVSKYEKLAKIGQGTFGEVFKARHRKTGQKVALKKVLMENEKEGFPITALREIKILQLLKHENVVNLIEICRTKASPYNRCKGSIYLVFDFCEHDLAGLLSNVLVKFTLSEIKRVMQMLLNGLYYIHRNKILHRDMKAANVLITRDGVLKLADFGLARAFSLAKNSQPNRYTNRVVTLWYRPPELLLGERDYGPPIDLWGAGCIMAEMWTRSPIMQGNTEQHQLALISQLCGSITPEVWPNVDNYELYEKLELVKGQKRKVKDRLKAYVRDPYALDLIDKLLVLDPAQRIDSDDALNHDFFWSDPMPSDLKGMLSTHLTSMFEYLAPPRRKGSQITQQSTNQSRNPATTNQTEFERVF

Structure (SMILES)	number of time points (YES1)	number of time points (ZAK)	number of time points (ZAP70)	number of time points (CDK4)	number of time points (CDK7)	number of time points (CDK9)
CN1CCN(c2ccc(NC(=O)c3ccc(C#N)o3)c(N3CCCCC3)c2)CC1 (10 µM)	0	0	0	0	0	1
C=CC(=O)N1CCN(c2nc(OC[C@@H]3CCCN3C)nc3c2CCN(c2cccc4cccc(C)c24)C3)C[C@@H]1CC#N (2.5 µM)	0	0	0	0	0	0
CC(C)n1nc(C#Cc2ccccc2)c2c(N)ncnc21 (10 µM)	3	0	0	0	0	0
CCc1nc(C(N)=O)c(Nc2ccc(N3CCC(N4CCN(C)CC4)CC3)c(OC)c2)nc1NC1CCC(OC)CC1 (stereo not given) [EML4-ALK kinase inhibitor 1] (2.5 µM)	0	0	0	0	0	0
COc1ccc(C2CC(c3ccc(Cl)cc3)=NN2c2nc(-c3ccncc3)cs2)cc1 (stereo not given) [mTOR inhibitor-8] (10 µM)	0	0	0	0	0	0
O=C(N/N=C/c1ccc([N+](=O)[O-])o1)c1ccc(O)cc1 [Nifuroxazide] (10 µM)	2	0	0	0	3	1
COc1ccc(COc2cc3oc(=O)c4cc(C(C)O)ccc4c3cc2OC)cc1 (stereo not given) [Palomid 529] (2.5 µM)	0	0	0	0	0	0
C1=N/C2=N/c3ccc(OCCN4CCCC4)c(c3)COC/C=C/COCc3cccc(c3)C(=C1)N2 [Pacritinib] (2.5 µM)	0	0	0	0	3	0
Cc1ccc(-c2csc(Cn3nc(CC4OCCCO4)c4ccccc4c3=O)n2)cc1 (10 µM)	0	0	0	0	0	0
COC[C@H]1Cn2cc(-c3nc(Nc4ccnn4C)ncc3C)nc2C(=O)N1Cc1ccc(F)c(F)c1 (10 µM)	0	0	0	0	0	0
O=C1NCCSc2c1sc1ccc(O)cc21 (2.5 µM)	0	0	0	0	0	0
CC(=O)Nc1nc(C)c(-c2cc3c(c(S(C)(=O)=O)c2)C(=O)N([C@@H](C)C2CC2)C3)s1 (2.5 µM)	0	0	0	0	0	0
Cn1cc(-c2cn3nccc3c(-c3cnn([C@]4(CC#N)C[C@@H](C#N)C4)c3)n2)cn1 (10 µM)	0	0	0	0	0	0
O=C(Nc1cc(Cl)cc(Cl)c1)Nc1cc(Cl)cc(Cl)c1 (10 µM)	0	0	0	0	0	0
CS(=O)(=O)N1CCN(Cc2cn3cc(-c4cnc(N)nc4)nc(N4CCOCC4)c3n2)CC1 (10 µM)	0	0	0	0	0	0
Cc1cc([N+](=O)[O-])c(NS(=O)(=O)c2cccc(C(=O)O)c2)cc1-c1cccnc1 [Alofanib] (10 µM)	0	0	0	0	0	0
Cc1c(Br)c(Br)c2c3c1nc(N1CCNCC1)n3CCC2 [SEL120-34A (monohydrochloride)] (2.5 µM)	0	0	0	0	0	0
O=C1C(=Cc2ccc(O)c(O)c2)Oc2ccccc21 (2.5 µM)	0	0	0	0	0	0

Reformatted as a markdown table: part of the list above.

| Structure (SMILES) | number of time points (YES1) | number of time points (ZAK) | number of time points (ZAP70) | number of time points (CDK4) | number of time points (CDK7) | number of time points (CDK9) |
| --- | --- | --- | --- | --- | --- | --- |
| Cn1cc(-c2cn3nccc3c(-c3cnn([C@]4(CC#N)C[C@@H](C#N)C4)c3)n2)cn1 (10 µM) | 0 | 0 | 0 | 0 | 0 | 0 |
| O=C(Nc1cc(Cl)cc(Cl)c1)Nc1cc(Cl)cc(Cl)c1 (10 µM) | 0 | 0 | 0 | 0 | 0 | 0 |

The listing continues:

Structure (SMILES)	number of time points (YES1)	number of time points (ZAK)	number of time points (ZAP70)	number of time points (CDK4)	number of time points (CDK7)	number of time points (CDK9)
Cc1ccc(CNC(=O)N2CCC[C@]3(CCN(Cc4ccc(Cl)c(Cl)c4)C3)C2)cc1 (10 µM)	0	0	0	0	0	0
CN1CCC(c2ccccc2CC(C)(C)Nc2nc(N3CCOCC3)nc(-n3c(S(C)(=O)=O)nc4ccccc43)n2)CC1 (10 µM)	0	0	0	0	0	0
O=C(CCc1ccc2n1[B-](F)(F)[N+]1=C(c3ccc[nH]3)C=CC1=C2)ON1C(=O)CCC1=O [Py-BODIPY-NHS ester] (2.5 µM)	0	0	0	0	0	0
C[C@H]1CNC(=O)c2cnn3ccc(nc23)N[C@H](C)c2cc(F)ccc2O1 [Repotrectinib] (2.5 µM)	1	0	0	0	1	0
O=c1sn(-c2cccc3ccccc23)c(=O)n1Cc1ccccc1 [Tideglusib] (10 µM)	0	0	0	0	0	0
CS(=O)(=O)N1CCc2c(-c3cnc(N)nc3)nc(N3CCOCC3)nc21 (10 µM)	0	0	0	0	1	0
OCCC#Cc1nc(-c2ccc(F)cc2)c(-c2ccncc2)n1CCCc1ccccc1 (2.5 µM)	0	0	0	0	0	0
CNC(=O)Nc1cc(Oc2cncc(C)c2)c(-c2ccc(OCC(C)(C)O)nc2)cn1 (2.5 µM)	0	0	0	0	0	0
CC(C)(O)c1cc2nc(-c3cnc(N)nc3)nc(N3CCOCC3)c2s1 (2.5 µM)	0	0	0	0	2	0
O=S(=O)(N=Cc1c(O)ccc2ccccc12)c1cccs1 (10 µM)	0	0	0	0	0	0
Cn1c(=O)c(Oc2ccc(F)cc2F)cc2cnc(NC(CCO)CCO)nc21 [Pamapimod] (10 µM)	0	0	0	0	0	0
N#C/C(=C\c1ccc[nH]1)c1ccc(Cl)c(Cl)c1 (2.5 µM)	0	0	0	0	0	0
C[C@@H]1CN(CC(=O)Nc2ccc3c(c2)Cc2cccc(-c4cc(=O)cc(N5CCOCC5)o4)c2S3)C[C@H](C)O1 (2.5 µM)	0	0	0	0	0	0
C=CC(=O)Nc1cccc(Nc2nc(Nc3ccc(Oc4ccnc(C(=O)NC)c4)cc3)ncc2F)c1 (2.5 µM)	0	0	0	0	0	0
C=CC(=O)N[C@H]1CCOC[C@H]1Nc1ncc2cc(-c3c(Cl)c(OC)cc(OC)c3Cl)ccc2n1 [Fisogatinib] (10 µM)	0	0	0	0	0	0
C[C@@H](Nc1cc(F)cc(F)c1)c1cc(C(=O)N(C)C)cc2c(=O)cc(N3CCOCC3)oc12 (10 µM)	0	0	0	0	0	0
CN(C)C(=O)c1cc2cnc(Nc3ccc(NC(=O)C4(C(=O)Nc5ccc(F)cc5)CC4)cc3)nc2n1C1CCCC1 (2 µM)	0	0	0	0	0	0

Source: the supplement of paper PMC12823440, “Inhibitors supercharge kinase turnover through native proteolytic circuits” (Nature, 2025)
